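Whole-cell growth test on Mycobacterium tuberculosis, read after 4 days in a medium based on cholesterol and the lipid DPPC; the read-out is not stated. Concentration: 500 µM. The record gives no direction; compounds that gave an IC50 in retests scored well above the rest, so higher reads as more growth inhibition. Size under these conditions: about 18,000 compounds, about 900 of them at 50% or above in at least one test.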

Each number is a percent effect as filed.
The record does not define 0% and 100%; most values in the screen are far below 50% and negative numbers occur (in some assays of this library far below -100).
This is an unselected part of the compounds tested.

- CCN(CC)C(=O)c1cc(C)oc1C : -2.551%
- CNCCC1CCN(c2ccncc2)CC1 : -5.614%
- Cc1csc(NC(=O)NCC2(O)CCN(C)CC2)n1 : 0.9218%
- CNCC(=O)Nc1cc(C)ccn1 : -0.1819%
- COC(=O)c1ccc(CSc2n[nH]c(=O)n2C)o1 : 7.704%
- CCOC(=O)c1cnc2ccnn2c1/C=C/N(C)C : 11.95%
- N#CC1(NC(=O)CCc2ccc(Cl)s2)CCOCC1 : 56.66%
- COc1ccc(NC(=O)N2CCC[C@@H]2CO)cc1 : 3.783%
- OCC1(NCc2ccc(Br)o2)CCOC1 (centres undefined) : 3.105%
- Cn1ncnc1SCC(=O)N1CCCCC1 : 13.15%
- Clc1cncc(NCC2CN(C3CC3)CCO2)n1 (centres undefined) : 46.93%
- Cc1c[nH]c(CN(C)c2cc(C3CC(O)C3)ncn2)n1 (centres undefined) : 7.505%
- Cc1n[nH]cc1CNCc1cccs1 : 1.968%
- CCn1c(C(N)=O)cc2ccccc21 : -1.882%
- CC(Cn1cccn1)NC(=O)Cn1cc(Br)ccc1=O (centres undefined) : 2.254%
- CSCc1nc(CNCC2(O)CCCNC2)cs1 (centres undefined) : -9.056%
- COCCN(C)CCNC(=O)c1c(F)cccc1F : 12.96%
- OCCN(CCN1CCOCC1)CC1CCOC1 (centres undefined) : -1.002%
- CC(C)(O)CN(C(=O)Nc1cnns1)C1CC1 : -4.861%
- NCCNS(=O)(=O)c1cccc(I)c1 : 18.21%
- CSc1ncccc1C(=O)Nc1ccc(C)cn1 : -9.739%
- OCCNCCNCc1ccc(-c2ccccc2F)o1 : 7.661%
- CC(CNC(=O)C1=NN(C)C(=O)CC1)N1CCOCC1 (centres undefined) : 9.036%
- C1CN(C2CCN(c3nnc(C4CC4)o3)CC2)CCS1 : 6.354%
- COc1cccc(C2(F)CCNC2)c1 (centres undefined) : 10.41%
- Cn1ccc(C(=O)N2CCOc3ccccc32)cc1=O : -10.19%
- O=C(c1cccnc1)N1CCCC1c1ccc(O)cc1 (centres undefined) : -3.153%
- c1n[nH]c2c1CNCC2 : -28.61%
- CN1CC[C@H]2CN(C(=O)CCCn3cccn3)C[C@H]21 : 10.14%
- COc1cccc(CN(C)CC2CCS(=O)(=O)C2)c1 (centres undefined) : 4.645%
- CCCN1CCN(Cc2nccn2C)CC1 : -16.39%
- CN1CCC(Oc2ccc(N)cn2)CC1 : -839.9%
- NC(=O)C1CC(=O)N(Cc2ccccc2C(F)(F)F)C1 (centres undefined) : -10.03%
- COC(=O)c1cn(C)nc1C : -13.02%
- CC(C)COc1ccccc1NC(C)C(=O)NC(N)=O (centres undefined) : -16.64%
- O[C@H]1CN(Cc2cscn2)C[C@@H]1N1CCCC1 : 0.2714%
- O=C(NCCN1CCOCC1)c1cc(C2CC2)[nH]n1 : 8.091%
- NC(=O)C1CCN(Cc2cnc3ccc(Br)cn23)CC1 : -5.161%
- CCN1CCCCC1C(=O)NCCc1ccco1 (centres undefined) : 4.965%

For reference, 3 entries once more:

{"structure": "OCC1(NCc2ccc(Br)o2)CCOC1", "stereo": "centres undefined", "effect": 3.105}
{"structure": "OCCN(CCN1CCOCC1)CC1CCOC1", "stereo": "centres undefined", "effect": -1.002}
{"structure": "CNCC(=O)Nc1cc(C)ccn1", "effect": -0.1819}

From ChEMBL document CHEMBL3988442, “University of Dundee, Small-Polar-MMV Screening Library” (2021).